Laboratory results published in US20250195521A1 (Revolution Medicines, Inc., priority 2020, published 2025).
Like-named read-outs stand apart in the source and are kept apart here. The match of structure and compound is tentative. Values belong to the molecule of their own block, whether it stands above or below them.

Sequences of proteins named here, by UniProt entry; tags and fusion partners are left off. A change or cut given only in a name is not applied to a line headed by its entry. A line that says so, or that is headed by a name, gives the form on record, which may keep a tag or linker. Residues count along the entry.
UniProt P01116, 1-169 isoform 2 G12C limits assumed: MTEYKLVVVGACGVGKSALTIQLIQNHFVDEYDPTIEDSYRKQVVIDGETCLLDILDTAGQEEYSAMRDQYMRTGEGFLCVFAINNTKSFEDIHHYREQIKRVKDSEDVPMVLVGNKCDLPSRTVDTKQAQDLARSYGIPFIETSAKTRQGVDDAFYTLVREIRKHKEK
UniProt P01116, 1-164 with tags or gaps G13C limits assumed: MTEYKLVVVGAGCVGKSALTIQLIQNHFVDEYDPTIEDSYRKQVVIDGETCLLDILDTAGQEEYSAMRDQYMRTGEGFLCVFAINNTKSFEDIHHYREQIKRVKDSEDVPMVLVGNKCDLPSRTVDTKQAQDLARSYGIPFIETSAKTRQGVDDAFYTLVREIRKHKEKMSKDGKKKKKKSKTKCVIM
UniProt P01116, 1-164 with tags or gaps G12D limits assumed: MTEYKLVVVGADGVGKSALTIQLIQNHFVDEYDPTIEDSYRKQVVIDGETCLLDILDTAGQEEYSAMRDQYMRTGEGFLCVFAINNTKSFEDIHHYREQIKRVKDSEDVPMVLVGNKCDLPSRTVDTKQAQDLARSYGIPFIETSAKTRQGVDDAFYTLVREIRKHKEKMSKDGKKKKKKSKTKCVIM
UniProt P01116, 1-164 with tags or gaps G12V limits assumed: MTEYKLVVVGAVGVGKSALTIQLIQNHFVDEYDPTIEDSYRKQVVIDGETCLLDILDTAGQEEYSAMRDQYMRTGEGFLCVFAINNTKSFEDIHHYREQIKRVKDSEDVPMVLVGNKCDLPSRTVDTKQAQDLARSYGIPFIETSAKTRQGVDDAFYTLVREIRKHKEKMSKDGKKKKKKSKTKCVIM
UniProt P01116, 1-164 with tags or gaps G12S limits assumed: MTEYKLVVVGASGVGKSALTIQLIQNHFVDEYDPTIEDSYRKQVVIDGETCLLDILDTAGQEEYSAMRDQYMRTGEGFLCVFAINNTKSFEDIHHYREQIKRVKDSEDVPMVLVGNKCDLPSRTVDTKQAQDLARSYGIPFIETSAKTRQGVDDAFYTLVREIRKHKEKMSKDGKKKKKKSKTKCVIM
UniProt P01116, 1-164 with tags or gaps Q61H limits assumed: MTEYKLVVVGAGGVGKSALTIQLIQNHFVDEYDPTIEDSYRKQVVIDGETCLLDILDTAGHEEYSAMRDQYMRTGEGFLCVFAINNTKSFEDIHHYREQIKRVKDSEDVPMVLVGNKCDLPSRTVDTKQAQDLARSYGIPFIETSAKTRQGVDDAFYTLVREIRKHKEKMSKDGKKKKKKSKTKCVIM
UniProt P01116, 1-164 with tags or gaps G12C limits assumed: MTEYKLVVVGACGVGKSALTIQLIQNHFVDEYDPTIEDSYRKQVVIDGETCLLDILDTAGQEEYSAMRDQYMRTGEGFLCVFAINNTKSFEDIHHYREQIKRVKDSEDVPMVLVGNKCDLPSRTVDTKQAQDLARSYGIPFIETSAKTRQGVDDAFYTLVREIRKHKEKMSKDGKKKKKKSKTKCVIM
UniProt P01116, 1-164 with tags or gaps G13D limits assumed: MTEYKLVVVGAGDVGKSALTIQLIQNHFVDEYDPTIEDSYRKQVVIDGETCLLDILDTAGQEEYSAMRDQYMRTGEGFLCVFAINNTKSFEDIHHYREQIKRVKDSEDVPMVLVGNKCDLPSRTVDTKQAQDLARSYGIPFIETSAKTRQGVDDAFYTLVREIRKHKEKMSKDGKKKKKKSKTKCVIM
UniProt P62937, whole entry, stated change not applied: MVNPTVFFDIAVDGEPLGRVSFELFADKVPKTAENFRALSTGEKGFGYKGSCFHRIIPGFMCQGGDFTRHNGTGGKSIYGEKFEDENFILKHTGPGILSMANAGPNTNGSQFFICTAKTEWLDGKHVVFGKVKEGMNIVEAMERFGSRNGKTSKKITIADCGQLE

Legend:
KRAS G12D = KRAS G12D (Homo sapiens (Human), UniProt P01116+P62937, G12D); test: Ras-Raf disruption/FRET/MOA assay (BRAF RBD, Cyclophilin A); format: biochemical
KRAS G12S = KRAS G12S (Homo sapiens (Human), UniProt P01116+P62937, G12S); test: as above; format: biochemical; conditions: read-out: KRAS G12S FRET IC50
KRAS Q61H = KRAS Q61H (Homo sapiens (Human), UniProt P01116+P62937, Q61H); test: as above; format: biochemical; conditions: read-out: KRAS Q61H FRET IC50
KRAS G12V = KRAS G12V (Homo sapiens (Human), UniProt P01116+P62937, G12V); test: as above; format: biochemical
KRAS G12C = KRAS G12C (Homo sapiens (Human), UniProt P01116+P62937, G12C); test: as above; format: biochemical
KRAS G13C = KRAS G13C (Homo sapiens (Human), UniProt P01116+P62937, G13C); test: as above; format: biochemical
[1] = tested on: NCI-H358 cells (K-Ras G12C); test: CellTiter-Glo cell viability, NCI-H358; format: cell-based, human; conditions: read-out: H358 Cell Viability IC50
[2] = tested on: Capan-1 cells (K-Ras G12V); test: CellTiter-Glo cell viability, Capan-1; format: cell-based, human; conditions: read-out: Capan-1 Cell Viability IC50, 5-day treatment
NCI-H358 (K-Ras G12C) = test: CellTiter-Glo cell viability assay, NCI-H358; format: cell-based, human; conditions: read-out: H358 Cell Viability assay data (K-Ras G12C, IC50); 5-day treatment
[3] = tested on: K-Ras G12C (NCI-H358 cells); test: Potency assay: pERK in NCI-H358 cells; format: cell-based, human; conditions: read-out: pERK EC50 (H358 KRAS G12C), 4 hours
[4] = molecular target: K-Ras G12C(GMP-PNP) binding to BRAF RBD (Homo sapiens (Human), UniProt P01116+P62937, G12C); test: Disruption of BRAF RBD interaction with K-Ras (FRET / MOA assay), K-Ras G12C; format: biochemical; conditions: read-out: KRAS G12C FRET IC50
[5] = tested on: Capan-1 cells (K-Ras G12V); test: Potency assay: pERK, Capan-1; format: cell-based; conditions: read-out: Capan-1 pERK EC50
KRAS G13D = KRAS G13D (Homo sapiens (Human), UniProt P01116+P62937, G13D); test: Ras-Raf disruption/FRET/MOA assay (BRAF RBD, Cyclophilin A); format: biochemical; conditions: read-out: FRET G13D IC50
[6] = tested on: NCI-H358 cells (K-Ras G12C); test: Potency assay: pERK, NCI-H358; format: cell-based; conditions: read-out: H358 pERK EC50
[7] = tested on: AsPC-1 cells (K-Ras G12D); test: Potency assay: pERK, AsPC-1; format: cell-based; conditions: read-out: ASPC-1 pERK EC50
[8] = molecular target: KRAS G12V binding to BRAF RBD (Homo sapiens (Human), UniProt P01116+P62937, G12V); test: Ras-Raf disruption/FRET/MOA assay, KRAS G12V; format: biochemical; conditions: read-out: KRAS G12V FRET IC50

Compound: CCn1c(-c2cccnc2[C@H](C)OC)c2c3cc(ccc31)-c1csc(n1)C[C@H](NC(=O)[C@H](C(C)C)N(C)C(=O)N1CC(NS(C)(=O)=O)C1)C(=O)N1CCC[C@H](N1)C(=O)OCC(C)(C)C2
IC50 (KRAS G12D; read-out: KRAS G12D FRET IC50): 0.1 to 1 µM | IC50 (KRAS G12S): 0.1 to 1 µM | IC50 (KRAS Q61H): 0.01 to 0.1 µM | IC50 (KRAS G12V; read-out: KRAS G12V FRET IC50): 0.1 to 1 µM | IC50 (KRAS G12C; read-out: KRAS G12C FRET IC50): 0.01 to 0.1 µM | IC50 (KRAS G13C; read-out: KRAS G13C FRET IC50): 0.1 to 1 µM | IC50 ([1]; K-Ras G12C, 5-day treatment): 0.01 to 0.1 µM | IC50 [2]: 0.1 to 1 µM | IC50 (NCI-H358 (K-Ras G12C)): < 0.01 µM | EC50 [3]: < 5 µM | IC50 [4]: 0.01 to 0.1 µM

Compound: CCn1c(-c2cccnc2[C@H](C)OC)c2c3cc(ccc31)-c1cc(O)cc(c1)C[C@H](NC(=O)[C@H](C(C)C)N(C)C(C)=O)C(=O)N1CCC[C@H](N1)C(=O)OCC(C)(C)C2
EC50 [5]: 0.052 µM | IC50 (KRAS G12D; read-out: FRET G12D IC50): 1.29 µM | IC50 (KRAS G12D; read-out: KRAS G12D FRET IC50): 1 to 10 µM | IC50 (KRAS G13D): 0.235 µM | IC50 (KRAS G12S): 0.1 to 1 µM | IC50 (KRAS Q61H): 0.01 to 0.1 µM | IC50 (KRAS G12V; read-out: FRET G12V IC50): 0.197 µM | IC50 (KRAS G12V; read-out: KRAS G12V FRET IC50): 0.1 to 1 µM | IC50 (KRAS G12C; read-out: FRET G12C IC50): 0.128 µM | IC50 (KRAS G12C; read-out: KRAS G12C FRET IC50): 0.1 to 1 µM | IC50 (KRAS G13C; read-out: FRET G13C IC50): 0.097 µM | IC50 (KRAS G13C; read-out: KRAS G13C FRET IC50): 0.01 to 0.1 µM | IC50 [1]: 0.226 µM | IC50 ([1]; K-Ras G12C, 5-day treatment): 0.1 to 1 µM | EC50 [6]: 0.064 µM | IC50 [2]: 0.1 to 1 µM | IC50 (NCI-H358 (K-Ras G12C)): 0.1 to 1 µM | EC50 [3]: < 5 µM | EC50 [7]: 0.706 µM

IC50 (NCI-H358 (K-Ras G12C)): > 10 µM
Compound: C=CC(=O)N1CC[C@H](C(=O)N(C)[C@H](C(=O)N[C@H]2Cc3cccc(c3)-c3ccc4c(c3)c(c(-c3cccnc3[C@H](C)OC)n4CC)CC(C)(C)COC(=O)[C@@H]3CCCN(N3)C2=O)C(C)C)[C@@H]1C

Compound: CCn1c(-c2cccnc2[C@H](C)OC)c2c3cc(ccc31)-c1csc(n1)C[C@H](NC(=O)[C@H](C(C)C)N(C)C(=O)N1C[C@@H]3CN(C)C[C@@H]31)C(=O)N1CCC[C@H](N1)C(=O)OCC(C)(C)C2
IC50 (KRAS G12S): 1 to 10 µM | IC50 (KRAS Q61H): 1 to 10 µM | IC50 (KRAS G12C; read-out: KRAS G12C FRET IC50): 1 to 10 µM | IC50 (KRAS G13C; read-out: KRAS G13C FRET IC50): 1 to 10 µM | IC50 [2]: > 10 µM | IC50 (NCI-H358 (K-Ras G12C)): < 0.01 µM | EC50 [3]: < 5 µM

Compound: CCn1c(-c2cccnc2[C@H](C)OC)c2c3cc(ccc31)-c1csc(n1)C[C@H](NC(=O)[C@H](C(C)C)N(C)C(=O)N1CC[C@H]1C)C(=O)N1CCC[C@H](N1)C(=O)OCC(C)(C)C2
IC50 [8]: 0.01 to 0.1 µM | IC50 (KRAS G12D; read-out: KRAS G12D FRET IC50): 1 to 10 µM | IC50 (KRAS G12S): 1 to 10 µM | IC50 (KRAS Q61H): 0.1 to 1 µM | IC50 (KRAS G12V; read-out: KRAS G12V FRET IC50): 1 to 10 µM | IC50 (KRAS G12C; read-out: KRAS G12C FRET IC50): 0.1 to 1 µM | IC50 (KRAS G13C; read-out: KRAS G13C FRET IC50): 1 to 10 µM | IC50 ([1]; K-Ras G12C, 5-day treatment): 0.01 to 0.1 µM | IC50 [2]: 0.1 to 1 µM | IC50 (NCI-H358 (K-Ras G12C)): 0.01 to 0.1 µM | EC50 [3]: < 5 µM | IC50 [4]: 0.01 to 0.1 µM

Compound: CCn1c(-c2cccnc2[C@H](C)OC)c2c3cc(ccc31)-c1csc(n1)C[C@H](NC(=O)[C@H](C(C)C)N1CCC3(CN(C(=O)OC)C3)C1=O)C(=O)N1CCC[C@H](N1)C(=O)OCC(C)(C)C2
IC50 (KRAS G13C; read-out: KRAS G13C FRET IC50): 1 to 10 µM

Compound: CCn1c(-c2cccnc2[C@H](C)OC)c2c3cc(ccc31)-c1cc(O)cc(c1)C[C@H](NC(=O)CCc1ccncc1)C(=O)N1CCC[C@H](N1)C(=O)OCC(C)(C)C2
IC50 (KRAS G12D; read-out: KRAS G12D FRET IC50): 1 to 10 µM | IC50 (KRAS G12S): 1 to 10 µM | IC50 (KRAS Q61H): 0.1 to 1 µM | IC50 (KRAS G12V; read-out: KRAS G12V FRET IC50): 1 to 10 µM | IC50 (KRAS G12C; read-out: KRAS G12C FRET IC50): 1 to 10 µM | IC50 (KRAS G13C; read-out: KRAS G13C FRET IC50): 0.1 to 1 µM | IC50 [2]: > 10 µM | IC50 (NCI-H358 (K-Ras G12C)): 0.1 to 1 µM | EC50 [3]: < 5 µM | IC50 [4]: 0.1 to 1 µM

Compound: CCn1c(-c2cccnc2[C@H](C)OC)c2c3cc(ccc31)-c1cc(O)cc(c1)C[C@H](NC(=O)[C@H](C(C)C)N(C)C(=O)[C@H]1C[C@H](O)C1)C(=O)N1CCC[C@H](N1)C(=O)OCC(C)(C)C2
IC50 (KRAS G12D; read-out: KRAS G12D FRET IC50): 0.1 to 1 µM | IC50 (KRAS G12C; read-out: KRAS G12C FRET IC50): 0.01 to 0.1 µM

IC50 [4]: 0.1 to 1 µM
Compound: C=CC(=O)N1CC[C@H](C(=O)N(C)[C@H](C(=O)N[C@H]2Cc3cc(O)cc(c3)-c3ccc4c(c3)c(c(-c3ccc(C5CCN(C)CC5)nc3)n4CC)CC(C)(C)COC(=O)[C@@H]3CCCN(N3)C2=O)C(C)C)C1

Compound: CCn1c(-c2cccnc2[C@H](C)OC)c2c3cc(ccc31)-c1csc(n1)C[C@H](NC(=O)[C@H](C(C)C)N(C)C(=O)N1C[C@@H](C)N(C)C[C@H]1C)C(=O)N1CCC[C@H](N1)C(=O)OCC(C)(C)C2
IC50 (KRAS G12D; read-out: KRAS G12D FRET IC50): 1 to 10 µM | IC50 (KRAS G12S): 0.1 to 1 µM | IC50 (KRAS Q61H): 0.1 to 1 µM | IC50 (KRAS G12V; read-out: KRAS G12V FRET IC50): 0.1 to 1 µM | IC50 (KRAS G12C; read-out: KRAS G12C FRET IC50): 0.1 to 1 µM | IC50 (KRAS G13C; read-out: KRAS G13C FRET IC50): 0.1 to 1 µM | IC50 ([1]; K-Ras G12C, 5-day treatment): 0.01 to 0.1 µM | IC50 [2]: 0.01 to 0.1 µM | IC50 (NCI-H358 (K-Ras G12C)): > 10 µM | IC50 [4]: > 10 µM
